Some results were stated once for a whole list of compounds, not compound by compound. Some compounds share one range, which may span the group rather than tell each member.
Each compound was assayed against T1, human histamine H3 receptor (Homo sapiens, UniProt Q9Y5N1) (assay: Histamine H3 functional antagonist assay). Details: membranes of CHO K1 cells expressing human histamine H3; [35S]GTPγS SPA; histamine 0.3 μM.
T1 construct: expressed in transfected cells; host or cells: CHO K1 cells carrying pSwitch, transfected with pGeneH3 and induced with mifepristone; membranes of clone 3H3
Assay type: biochemical
Method: A membrane preparation containing histamine H3 receptors may be prepared in accordance with the following procedures:
Ligated DNA was transformed into competent DH5α E. coli host bacterial cells and plated onto Luria Broth (LB) agar containing Zeocin™ (an antibiotic which allows the selection of cells expressing the sh ble gene which is present on pGene and pSwitch) at 50 μg ml^−1. Colonies containing the re-ligated plasmid were identified by restriction analysis. DNA for transfection into mammalian cells was prepared from 250 ml cultures of the host bacterium containing the pGeneH3 plasmid and isolated using a DNA preparation kit (Qiagen Midi-Prep) as per manufacturers guidelines (Qiagen).
CHO K1 cells previously transfected with the pSwitch regulatory plasmid (InVitrogen) were seeded at 2×10e6 cells per T75 flask in Complete Medium, containing Hams F12 (GIBCOBRL, Life Technologies) medium supplemented with 10% v/v dialysed foetal bovine serum, L-glutamine, and hygromycin (100 μg ml^−1), 24 hours prior to use. Plasmid DNA was transfected into the cells using Lipofectamine plus according to the manufacturers guidelines (InVitrogen). 48 hours post transfection cells were placed into complete medium supplemented with 500 μg ml^−1 Zeocin™.
10-14 days post selection 10 nM Mifepristone (InVitrogen), was added to the culture medium to induce the expression of the receptor. […] Approximately 1×10e7 cells were examined for receptor expression by staining with a rabbit polyclonal antibody, 4a, raised against the N-terminal domain of the histamine H3 receptor, incubated on ice for 60 minutes, followed by two washes in sorting medium. […] Following two further washes with Sorting Medium, cells were filtered through a 50 μm Filcon™ (BD Biosciences) and then analysed on a FACS Vantage SE Flow Cytometer fitted with an Automatic Cell Deposition Unit. […] Positively stained cells were sorted as single cells into 96-well plates, containing Complete Medium containing 500 μg ml^−1 Zeocin™ and allowed to expand before reanalysis for receptor expression via antibody and ligand binding studies.
All steps of the protocol are carried out at 4° C. and with pre-cooled reagents. […] The cells are then homogenised by 2×15 second bursts in a 1 litre glass Waring blender, followed by centrifugation at 500 g for 20 minutes. The supernatant is then spun at 48,000 g for 30 minutes. The pellet is resuspended in 4 volumes of buffer A2 by vortexing for 5 seconds, followed by homogenisation in a Dounce homogeniser (10-15 strokes). At this point the preparation is aliquoted into polypropylene tubes and stored at −70° C.
(II) Histamine H3 Functional Antagonist Assay
The plate is then incubated on a shaker at room temperature for 30 minutes followed by centrifugation for 5 minutes at 1500 rpm. The plate is read between 3 and 6 hours after completion of centrifuge run in a Wallac Microbeta counter on a 1 minute normalised tritium count protocol. Data is analysed using a 4-parameter logistic equation. Basal activity used as minimum i.e. histamine not added to well.

Protein sequences, listed by entry. Tags and fused reporters are not part of them. Lines headed by an entry give the natural chain unless they say otherwise; changes in a name come on top.
UniProt Q9Y5N1: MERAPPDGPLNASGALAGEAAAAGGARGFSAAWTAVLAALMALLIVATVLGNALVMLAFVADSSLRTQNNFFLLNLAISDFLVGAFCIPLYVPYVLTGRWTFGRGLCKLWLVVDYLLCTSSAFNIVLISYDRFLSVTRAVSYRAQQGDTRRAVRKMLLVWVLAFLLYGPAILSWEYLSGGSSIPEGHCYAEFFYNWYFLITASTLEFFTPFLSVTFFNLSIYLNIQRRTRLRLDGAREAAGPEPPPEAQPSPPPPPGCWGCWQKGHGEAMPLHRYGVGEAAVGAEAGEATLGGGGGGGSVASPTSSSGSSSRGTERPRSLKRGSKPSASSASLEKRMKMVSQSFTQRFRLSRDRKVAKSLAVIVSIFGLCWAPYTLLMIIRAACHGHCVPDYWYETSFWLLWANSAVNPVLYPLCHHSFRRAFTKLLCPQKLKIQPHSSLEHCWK

| Compound | antagonism (pKb) |
| --- | --- |
| c1cc2c(cc1OC1CCNCC1)CCN(C1CCCC1)CC2 [Example 5, 3-Cyclopentyl-7-(piperidin-4-yloxy)-2,3,4,5-tetrahydro-1H-benzo[d]azepine] | 6.5-10.5 pKb |
| c1cc2c(cc1OC[C@H]1CCCN1)CCN(C1CCC1)CC2 [Example 8, 3-Cyclobutyl-7-((R)-1-pyrrolidin-2-ylmethoxy)-2,3,4,5-tetrahydro-1H-benzo[d]azepine] | 6.5-10.5 pKb |
| c1cc2c(cc1O[C@@H]1CCNC1)CCN(C1CCC1)CC2 [Example 9, 3-Cyclobutyl-7-((R)-pyrrolidin-3-yloxy)-2,3,4,5-tetrahydro-1H-benzo[d]azepine] | 6.5-10.5 pKb |
| c1cc2c(cc1O[C@H]1CCNC1)CCN(C1CCC1)CC2 [Example 10, 3-Cyclobutyl-7-((S)-pyrrolidin-3-yloxy)-2,3,4,5-tetrahydro-1H-benzo[d]azepine] | 6.5-10.5 pKb |
| c1cc2c(cc1OC[C@@H]1CCCN1)CCN(C1CCC1)CC2 [Example 11, 3-Cyclobutyl-7-((S)-1-pyrrolidin-2-ylmethoxy)-2,3,4,5-tetrahydro-1H-benzo[d]azepine] | 6.5-10.5 pKb |
| c1cc2c(cc1OCC1CCNCC1)CCN(C1CCCC1)CC2 [Example 12, 3-Cyclopentyl-7-(piperidin-4-ylmethoxy)-2,3,4,5-tetrahydro-1H-benzo[d]azepine] | 6.5-10.5 pKb |
| N#Cc1ccc(C(=O)N2CCC(Oc3ccc4c(c3)CCN(C3CCC3)CC4)CC2)cc1 [Example 13, 4-{1-[4-(3-Cyclobutyl-2,3,4,5-tetrahydro-1H-benzo[d]azepin-7-yloxy)-piperidin-1-yl]-methanoyl}-benzonitrile] | 6.5-10.5 pKb |
| O=C(C1CCOCC1)N1CCC(Oc2ccc3c(c2)CCN(C2CCC2)CC3)CC1 [Example 14, 1-[4-(3-Cyclobutyl-2,3,4,5-tetrahydro-1H-benzo[d]azepin-7-yloxy)-piperidin-1-yl]-1-(tetrahydro-pyran-4-yl)-methanone] | 6.5-10.5 pKb |
| O=C(C1CCCCC1)N1CCC(Oc2ccc3c(c2)CCN(C2CCC2)CC3)CC1 [Example 15, 1-[4-(3-Cyclobutyl-2,3,4,5-tetrahydro-1H-benzo[d]azepin-7-yloxy)-piperidin-1-yl]-1-cyclohexyl-methanone] | 6.5-10.5 pKb |
| O=C(c1nccc2ccccc12)N1CCC(Oc2ccc3c(c2)CCN(C2CCC2)CC3)CC1 [Example 16, 1-[4-(3-Cyclobutyl-2,3,4,5-tetrahydro-1H-benzo[d]azepin-7-yloxy)-piperidin-1-yl]-1-isoquinolin-1-yl-methanone] | 6.5-10.5 pKb |
| N#Cc1ccc(/C=C/C(=O)N2CCC(Oc3ccc4c(c3)CCN(C3CCC3)CC4)CC2)cc1 [Example 17, 4-{(E)-3-[4-(3-Cyclobutyl-2,3,4,5-tetrahydro-1H-benzo[d]azepin-7-yloxy)-piperidin-1-yl]-3-oxo-propenyl}-benzonitrile] | 6.5-10.5 pKb |
| O=C(c1ccc2cnccc2c1)N1CCC(Oc2ccc3c(c2)CCN(C2CCC2)CC3)CC1 [Example 18, 1-[4-(3-Cyclobutyl-2,3,4,5-tetrahydro-1H-benzo[d]azepin-7-yloxy)-piperidin-1-yl]-1-isoquinolin-6-yl-methanone] | 6.5-10.5 pKb |
| O=C(c1ccc2ncsc2c1)N1CCC(Oc2ccc3c(c2)CCN(C2CCC2)CC3)CC1 [Example 20, 1-Benzothiazol-6-yl-1-[4-(3-cyclobutyl-2,3,4,5-tetrahydro-1H-benzo[d]azepin-7-yloxy)-piperidin-1-yl]-methanone] | 6.5-10.5 pKb |
| O=C(c1ccncc1)N1CCC(Oc2ccc3c(c2)CCN(C2CCC2)CC3)CC1 [Example 21, 1-[4-(3-Cyclobutyl-2,3,4,5-tetrahydro-1H-benzo[d]azepin-7-yloxy)-piperidin-1-yl]-1-pyridin-4-yl-methanone] | 6.5-10.5 pKb |
| O=C(c1ccc(C(=O)N2CCC(Oc3ccc4c(c3)CCN(C3CCC3)CC4)CC2)cc1)N1CCCC1 [Example 22, 1-[4-(3-Cyclobutyl-2,3,4,5-tetrahydro-1H-benzo[d]azepin-7-yloxy)-piperidin-1-yl]-1-[4-(1-pyrrolidin-1-yl-methanoyl)-phenyl]-methanone] | 6.5-10.5 pKb |
| O=C(c1ccsc1)N1CCC(Oc2ccc3c(c2)CCN(C2CCC2)CC3)CC1 [Example 23, 1-[4-(3-Cyclobutyl-2,3,4,5-tetrahydro-1H-benzo[d]azepin-7-yloxy)-piperidin-1-yl]-1-thiophen-3-yl-methanone] | 6.5-10.5 pKb |
| O=C(c1ccoc1)N1CCC(Oc2ccc3c(c2)CCN(C2CCC2)CC3)CC1 [Example 24, 1-[4-(3-Cyclobutyl-2,3,4,5-tetrahydro-1H-benzo[d]azepin-7-yloxy)-piperidin-1-yl]-1-furan-3-yl-methanone] | 6.5-10.5 pKb |
| O=C(C1CCOCC1)N1CCC[C@@H]1COc1ccc2c(c1)CCN(C1CCC1)CC2 [Example 26, 1-[(R)-2-(3-Cyclobutyl-2,3,4,5-tetrahydro-1H-benzo[d]azepin-7-yloxymethyl)-pyrrolidin-1-yl]-1-(tetrahydro-pyran-4-yl)-methanone] | 6.5-10.5 pKb |
| O=C(C1CCOCC1)N1CC[C@@H](Oc2ccc3c(c2)CCN(C2CCC2)CC3)C1 [Example 27, 1-[(R)-3-(3-Cyclobutyl-2,3,4,5-tetrahydro-1H-benzo[d]azepin-7-yloxy)-pyrrolidin-1-yl]-1-(tetrahydro-pyran-4-yl)-methanone] | 6.5-10.5 pKb |
| O=C(C1CCOCC1)N1CC[C@H](Oc2ccc3c(c2)CCN(C2CCC2)CC3)C1 [Example 28, 1-[(S)-3-(3-Cyclobutyl-2,3,4,5-tetrahydro-1H-benzo[d]azepin-7-yloxy)-pyrrolidin-1-yl]-1-(tetrahydro-pyran-4-yl)-methanone] | 6.5-10.5 pKb |
| O=C(C1CCOCC1)N1CCC[C@@H]1Oc1ccc2c(c1)CCN(C1CCC1)CC2 [Example 29, 1-[(S)-2-(3-Cyclobutyl-2,3,4,5-tetrahydro-1H-benzo[d]azepin-7-yloxy)-pyrrolidin-1-yl]-1-(tetrahydro-pyran-4-yl)-methanone] | 6.5-10.5 pKb |
| O=C(c1cnccn1)N1CCC(Oc2ccc3c(c2)CCN(C2CCC2)CC3)CC1 [Example 31, 1-[4-(3-Cyclobutyl-2,3,4,5-tetrahydro-1H-benzo[d]azepin-7-yloxy)-piperidin-1-yl]-1-pyrazin-2-yl-methanone] | 6.5-10.5 pKb |
| O=C(c1ccc2c(c1)CCO2)N1CCC(Oc2ccc3c(c2)CCN(C2CCC2)CC3)CC1 [Example 33, 1-[4-(3-Cyclobutyl-2,3,4,5-tetrahydro-1H-benzo[d]azepin-7-yloxy)-piperidin-1-yl]-1-(2,3-dihydro-benzofuran-5-yl)-methanone] | 6.5-10.5 pKb |
| COCCC(=O)N1CCC(Oc2ccc3c(c2)CCN(C2CCC2)CC3)CC1 [Example 34, 1-[4-(3-Cyclobutyl-2,3,4,5-tetrahydro-1H-benzo[d]azepin-7-yloxy)-piperidin-1-yl]-3-methoxy-propan-1-one] | 6.5-10.5 pKb |
| O=C(c1cccc2c1OCC2)N1CCC(Oc2ccc3c(c2)CCN(C2CCC2)CC3)CC1 [Example 35, 1-[4-(3-Cyclobutyl-2,3,4,5-tetrahydro-1H-benzo[d]azepin-7-yloxy)-piperidin-1-yl]-(2,3-dihydro-benzofuran-7-yl)-methanone] | 6.5-10.5 pKb |
| N#Cc1ccc(C(=O)N2CCC(COC3(OCC4CCNCC4)C=CC4=C(CCN(C5CCCC5)CC4)C3)CC2)cc1 (stereo not drawn) [Example 36, 4-{1-{4-(3-Cyclopentyl-7-(piperidin-4-ylmethoxy)-2,3,4,5-tetrahydro-1H-benzo[d]azepin-7-yloxymethyl)piperidin-1-yl]-methanoyl}-benzonitrile] | 6.5-10.5 pKb |
| O=C(c1ccc(C(=O)N2CCC(COc3ccc4c(c3)CCN(C3CCCC3)CC4)CC2)cc1)N1CCCC1 [Example 37, 1-[4-(3-Cyclopentyl-2,3,4,5-tetrahydro-1H-benzo[d]azepin-7-yloxymethyl)-piperidin-1-yl]-1-[4-(1-pyrrolidin-1-yl-methanoyl)-phenyl]-methanone] | 6.5-10.5 pKb |

From patent US7704994B2, “Benzazepine derivatives for the treatment of neurological disorders” (Glaxo Group Limited, priority 2002, dated 2010)
